Measured values published in PubChem BioAssay AID493014 (National Center for Advancing Translational Sciences (NCATS), 2011).
Some of the results follow. Shown are side measurements of this screen, not its main read-out; they come without a call. Compounds called inactive in the main read-out are mostly missing here. The note in brackets gives the kind of curve behind each potency; many fits are weak.

Experiment: qHTS Assay to Find Inhibitors of Chronic Active B-Cell Receptor Signaling
Conditions: ABC-DLBCL IkBa-CBG/CBR reporter, luminescence ratio (green luciferase fused to IkBa over red control in TMD8 lymphoma cells), 4 h
How it was run: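 Doxycycline induced both beetle luciferases in TMD8 lymphoma cells; IKK-driven degradation limits the IkappaBalpha-fused green signal, while red luminescence normalises for cell number and nonspecific effects. Compounds tested up to 46 uM, 4 hrs.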

[1] = measured here: CBR red luminescence, cell number
[2] = measured here: IkBa-CBG green luminescence

Q: With CC1=CC(c2ccccc2)=NS(=O)(=O)N1 as the molecule, how does the AC50 [1] read?
A: 11.6 µM [rising, partial curve, poor fit]

Q: For CCONC(=O)Nc1ccccc1[N+](=O)[O-], which AC50 [1] is on record?
A: 8.2 µM [rising, partial curve, poor fit]

Q: What about the AC50 [2] of the same molecule?
A: 18.4 µM [falling, partial curve, poor fit]

Q: For CC(=O)c1c(C)[nH]c(C(=O)Nc2ccc(C)cc2Br)c1C, which AC50 [1] is on record?
A: 1.26 µM [rising, full curve, poor fit]

Q: Which AC50 [1] does the source give for CCCn1c(=O)c(C(=O)Nc2cc(C)ccn2)c(O)c2ccccc21 here?
A: 14.1 µM [rising, partial curve]

Q: Which AC50 [1] does the source give for C[n+]1nc(Nc2cccc(F)c2)sc1-c1ccc(C(=O)O)cc1 here?
A: 10 µM [falling, partial curve]

Q: For COc1ccc([C@H]2[C@@H]3C=CCC[C@@]3(C)C(=O)N2Cc2ccccc2)cc1Cl, which AC50 [1] is on record?
A: 12.6 µM [falling, partial curve, poor fit]

Q: For O=C(NCC1CCCCC1)C1(CC2CC(c3cccc(Br)c3)=NO2)CCNCC1 (configuration not stated), which AC50 [1] is on record?
A: 15.8 µM [falling, single point]

Q: For CCCc1cc(=O)n2nc(N3CCC(C(=O)Nc4cccc(C(C)=O)c4)CC3)sc2n1, which AC50 [1] is on record?
A: 35.5 µM [rising, single point]

Q: Which AC50 [1] does the source give for C/C(O)=C(/C#N)c1nc2ccccc2[nH]1 here?
A: 8.91 µM [falling, partial curve, poor fit]

Q: Which AC50 [1] does the source give for CC(C)(C)NC(=O)CCC1COc2ccccc2O1 (configuration not stated) here?
A: 25.9 µM [rising, partial curve, poor fit]

Q: For COc1ccc(/C(C)=N/NC(=O)c2ccccc2N)cc1, which AC50 [1] is on record?
A: 17.8 µM [falling, partial curve, poor fit]

Q: With COc1ccc(NC(=O)n2ncc3c(C)cccc32)cc1OC as the molecule, how does the AC50 [1] read?
A: 22.4 µM [falling, partial curve, poor fit]

Q: For Cc1ccc2nc(SCC(=O)Nc3ccc4c(c3)OCCO4)nc(=O)n2c1, which AC50 [1] is on record?
A: 25.9 µM [rising, partial curve, poor fit]

Q: With C/C(=N\NC(=O)c1ccco1)c1ccc(NC(=O)C(F)(F)F)cc1 as the molecule, how does the AC50 [1] read?
A: 15.8 µM [falling, single point]

Q: For COc1cc2c(cc1OC)C(COc1cc(C)cc(C)c1)N(C(=O)C(C)(C)C)CC2 (configuration not stated), which AC50 [1] is on record?
A: 8.91 µM [rising, partial curve, poor fit]

Q: For Fc1cccc(/C=N/N=C/c2cccc(F)c2)c1, which AC50 [1] is on record?
A: 11.2 µM [rising, partial curve, poor fit]

Q: Which AC50 [1] does the source give for Cc1c(C(=O)Nc2c(F)cccc2F)sc2ncn(Cc3ccccc3F)c(=O)c12 here?
A: 8.91 µM [rising, partial curve, poor fit]

Q: With N#Cc1cccc(-n2nnnc2-c2ccccn2)c1 as the molecule, how does the AC50 [1] read?
A: 11.2 µM [rising, partial curve]

Q: For Cc1cc(C(=O)N/N=C/c2cccc3ccccc23)c(C)o1, which AC50 [1] is on record?
A: 14.1 µM [falling, partial curve]

Q: With Cc1sc(N(C(=O)CCc2ccccc2)c2ccc(C(=O)O)cc2)nc1-c1ccccc1 as the molecule, how does the AC50 [1] read?
A: 1.41 µM [falling, full curve]

Q: With CCOC(=O)Cc1nnc(NCc2ccccc2)c2ccccc12 as the molecule, how does the AC50 [1] read?
A: 11.2 µM [falling, partial curve]

Q: Which AC50 [1] does the source give for CC(=O)c1sc(NC(=O)c2ccc(C(C)(C)C)cc2)nc1C here?
A: 1.26 µM [falling, partial curve]

Q: For COc1cc2c(c(OC)c1OC)C(c1ccc3c(c1)OCO3)CC(=O)O2 (configuration not stated), which AC50 [1] is on record?
A: 29.1 µM [rising, single point]

Q: What about the AC50 [2] of the same molecule?
A: 20.6 µM [falling, single point]

Q: For COc1ccccc1NS(=O)(=O)c1cc(Cl)ccc1OC, which AC50 [1] is on record?
A: 35.5 µM [rising, partial curve, poor fit]

Q: With O=C(NC1CC1)c1cccc(NC(=O)c2cn3ccccc3n2)c1 as the molecule, how does the AC50 [1] read?
A: 8.2 µM [falling, partial curve]

Q: With Cc1ccc(N(CC(=O)NCC2CCCO2)S(=O)(=O)c2ccccc2)c(C)c1 (configuration not stated) as the molecule, how does the AC50 [1] read?
A: 6.31 µM [falling, single point]

Q: Which AC50 [1] does the source give for O=C(Cn1c(=O)c2cccn2c2ccccc21)NCc1cccc(F)c1 here?
A: 7.08 µM [rising, partial curve, poor fit]

Q: Which AC50 [1] does the source give for CCc1nnc(NS(=O)(=O)c2ccc(NCc3cc(Cl)cc(Cl)c3O)cc2)s1 here?
A: 35.5 µM [rising, single point]

Q: With COc1ccc(OC)c(NC(=O)CSc2nc(=O)n(Cc3ccccn3)c3c2CCC3)c1 as the molecule, how does the AC50 [1] read?
A: 6.51 µM [falling, partial curve]

Q: Which AC50 [1] does the source give for Cc1ccc(OCC(=O)Nc2ccccc2[N+](=O)[O-])c(Br)c1 here?
A: 5.01 µM [rising, partial curve]

Q: Which AC50 [1] does the source give for CN(C)c1ccc(-c2ccccc2)nn1 here?
A: 4.61 µM [rising, single point]

Q: Which AC50 [1] does the source give for CC(C)CCN1CN(S(=O)(=O)c2cccs2)c2nc3ccccc3nc21 here?
A: 4.61 µM [rising, single point]

Q: With CCS(=O)(=O)Nc1cc(OC)c(OC)cc1Cc1nccc2cc(OC)c(OC)cc12 as the molecule, how does the AC50 [1] read?
A: 7.08 µM [rising, full curve, poor fit]

Q: With CC(CCc1ccccc1)NC(=O)Cc1ccccc1 (configuration not stated) as the molecule, how does the AC50 [1] read?
A: 29.1 µM [rising, single point]

Q: Which AC50 [1] does the source give for COc1ccccc1N(CC(=O)N(c1ccccc1)C(C)C)S(=O)(=O)c1cccs1 here?
A: 11.2 µM [falling, partial curve]

Q: With Cc1cc(C)nc(Nc2n[nH]c(-c3cccc4ccccc34)n2)n1 as the molecule, how does the AC50 [1] read?
A: 1.58 µM [falling, full curve, poor fit]

Q: With COc1cccc(NC(=O)/C=C/c2ccc([N+](=O)[O-])cc2)c1 as the molecule, how does the AC50 [1] read?
A: 0.708 µM [falling, full curve]

Q: For NS(=O)(=O)c1cccc(NC(=O)CCS(=O)(=O)c2ccc(Cl)cc2)c1, which AC50 [1] is on record?
A: 20 µM [rising, single point]

Q: For CCOc1ccc(-c2nc(C#N)c(NCC(C)C)o2)cc1, which AC50 [1] is on record?
A: 7.94 µM [rising, partial curve, poor fit]

Q: With CCOC(=O)c1sc(NC(=O)CN2CC(C)OC(C)C2)nc1C (configuration not stated) as the molecule, how does the AC50 [1] read?
A: 31.6 µM [falling, single point]

Q: For O=C(Nc1ccncc1)c1ccc([N+](=O)[O-])cc1Cl, which AC50 [1] is on record?
A: 11.2 µM [falling, partial curve]

Q: Which AC50 [1] does the source give for CC1CN(CCOCCSc2ccccc2)CC(C)O1 (configuration not stated) here?
A: 6.31 µM [rising, partial curve, poor fit]

Q: Which AC50 [1] does the source give for O=C(Nc1ccc(Br)c(C(F)(F)F)c1)c1ccc(C(F)(F)F)cc1 here?
A: 5.62 µM [rising, full curve, poor fit]

Q: With Cc1ccc(OC(C)C(=O)N=Nc2c(O)[nH]c3ccc([N+](=O)[O-])cc23)cc1 (configuration not stated) as the molecule, how does the AC50 [1] read?
A: 3.98 µM [rising, single point]

Q: With CC(C)(C)c1ccc(C(=O)Nc2cccc(-n3cnnn3)c2)cc1 as the molecule, how does the AC50 [1] read?
A: 22.4 µM [falling, single point]

Q: For O=C(COc1ccccc1)Nc1cccc(-c2nc3cc4ccccc4cc3[nH]2)c1, which AC50 [1] is on record?
A: 28.2 µM [falling, partial curve, poor fit]

Q: For CCCNc1c(NS(=O)(=O)c2ccc(Cl)s2)c(=O)oc2ccccc12, which AC50 [1] is on record?
A: 20 µM [falling, partial curve]

Q: Which AC50 [1] does the source give for COc1ccc(-n2c(=O)c3c(C)c(C)sc3n(Cc3cccc(F)c3)c2=O)c(OC)c1 here?
A: 8.91 µM [falling, partial curve, poor fit]

Q: With O=S(=O)(NCCc1csc2nc(-c3ccc(Cl)cc3)nn12)c1cccs1 as the molecule, how does the AC50 [1] read?
A: 35.5 µM [falling, single point]

Q: And the AC50 [2]?
A: 15.8 µM [rising, partial curve, poor fit]

Q: For COC(=O)c1ccc(CSc2nnc(SCc3ccc(C(=O)OC)o3)s2)o1, which AC50 [1] is on record?
A: 17.8 µM [falling, single point]

Q: Which AC50 [1] does the source give for Cc1ccc(Oc2ccc(Cl)cc2N)cc1 here?
A: 6.31 µM [rising, partial curve]

Q: With CCCc1cc(C(=O)Nc2ccc(C(=O)c3ccc(C)cc3)cc2)n(C)n1 as the molecule, how does the AC50 [1] read?
A: 35.5 µM [falling, single point]

Q: For COc1ccccc1-c1cc(C(=O)Nc2cccnc2)no1, which AC50 [2] is on record?
A: 12.6 µM [falling, partial curve]

Q: Which AC50 [1] does the source give for O=C(NC1CCS(=O)(=O)C1)c1cc(-c2ccccc2)nc2ccccc12 (configuration not stated) here?
A: 2 µM [rising, full curve, poor fit]

Q: Which AC50 [1] does the source give for CC(=O)Nc1ccc(NC(=O)Cc2sc(C)nc2-c2ccc(C)cc2)cc1 here?
A: 3.66 µM [rising, partial curve, poor fit]

Q: For CCOC(=O)c1sc2nc(C)[nH]c(=S)c2c1C, which AC50 [1] is on record?
A: 8.91 µM [rising, partial curve, poor fit]

Q: Which AC50 [1] does the source give for Cc1cc(C(=O)OCC(=O)NCCc2ccc(S(N)(=O)=O)cc2)c2ccccc2n1 here?
A: 2.31 µM [rising, partial curve, poor fit]

Q: For CC(=O)Nc1cc2c(cc1Br)OCCO2, which AC50 [1] is on record?
A: 23.1 µM [falling, single point]

Q: With Cc1cccc(-n2ncc3c(NCCOCCO)ncnc32)c1 as the molecule, how does the AC50 [2] read?
A: 0.562 µM [rising, full curve, poor fit]

Q: For O=S(=O)(Nc1ccc(S(=O)(=O)N2CCCC2)cc1)c1ccc(F)cc1, which AC50 [1] is on record?
A: 0.112 µM [falling, full curve, poor fit]

Q: For C=C1CCC2[C@](C)(CO)[C@H](O)CC[C@@]2(C)[C@@H]1C/C=C1\C(=O)OC[C@H]1O (some centres not stated), which AC50 [1] is on record?
A: 32.6 µM [falling, single point]

Q: With Cn1nc(C(=O)NC2CCCN(Cc3ccccc3F)C2)c2ccccc2c1=O (configuration not stated) as the molecule, how does the AC50 [1] read?
A: 12.6 µM [rising, partial curve]

Q: What about the AC50 [2] of the same molecule?
A: 15.8 µM [falling, single point]

Q: Which AC50 [1] does the source give for Cc1cc(C)nc(Oc2ccc(Br)cc2Br)n1 here?
A: 31.6 µM [rising, partial curve, poor fit]
